From patent US7763463B2, “Use of cyclic AMP and ascorbic acid to produce dopaminergic neurons from embryonic stem cells” (Geron Corporation, priority 2000, dated 2010)
At least one compound was matched to its structure with a doubt left.

Tested on: hES cells of the H7 line
Assay: Direct differentiation: noggin, follistatin and retinoic acid (FIG. 6)
Type: cell-based, human
Conditions: treatment F with vs omitting retinoic acid
Text: Noggin is apparently important at about the 1 week point (days 5 to 8), while follistatin is important at around the 2 week point (days 13 to 15), maximizing production of mature neurons rather than small neurites.
Virtually no β-tubulin positive neurons were formed in the absence of noggin or follistatin. […] It is hypothesized that initial noggin/follistatin induction generates a neural progenitor cell, which subsequently can be induced to form neurons by the addition of other factors.
Cells were differentiated according to treatment F as previously (left 2 bars) or omitting retinoic acid (right 2 bars).

CC1=C(/C=C/C(C)=C/C=C/C(C)=C/C(=O)O)C(C)(C)CCC1 [retinoic acid]
effect on proportion of neurons staining positively for tyrosine hydroxylase: decreased the proportion of those neurons staining positively for tyrosine hydroxylase | effect on total percentage of β-tubulin positive neurons: increased the total percentage of β-tubulin positive neurons somewhat
